Results are given in words; binding and its absence hold for the method and conditions named. Binding seen in cells or lysates may run through a third protein. Some binding calls cover weakened binding; strength is not graded here.
Target: T1, High-mobility group box 2 (HMGB2) (UniProt P30681)
T1 sequence: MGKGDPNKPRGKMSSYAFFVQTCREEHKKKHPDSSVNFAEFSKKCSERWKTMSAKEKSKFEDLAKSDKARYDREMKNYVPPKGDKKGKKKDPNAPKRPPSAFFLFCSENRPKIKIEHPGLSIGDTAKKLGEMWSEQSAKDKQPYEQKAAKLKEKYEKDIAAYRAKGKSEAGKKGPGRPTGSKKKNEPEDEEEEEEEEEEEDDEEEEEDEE
Assay: co-IP; cells lysed in radioimmunoprecipitation assay buffer with protease inhibitor, sonicated; lysates immunoprecipitated with antibodies on protein A/G agarose beads; immunoblot; cell line and bait not stated

B1: TRIM24 (protein, UniProt Q64127 1-1051)
chain: MEVAVEKAAAAAAPAGGPAAAAPSGENEAESRQGPDSESGGEASRLNLLDTCAVCHQNIQSRVPKLLPCLHSFCQRCLPAPQRYLMLTAPALGSAETPPPAPAPAPAPGSPAGGPSPFATQVGVIRCPVCSQECAERHIIDNFFVKDTTEVPSSTVEKSNQVCTSCEDNAEANGFCVECVEWLCKTCIRAHQRVKFTKDHTVRQKEEVSPEAVGVTSQRPVFCPFHKKEQLKLYCETCDKLTCRDCQLLEHKEHRYQFIEEAFQNQKVIIDTLITKLMEKTKYIKYTGNQIQNRIIEINQNQKQVEQDIKVAIFTLMVEINKKGKALLHQLESLAKDHRMKLMQQQQEVAGLSKQLEHVMHFSKWAVSSGSSTALLYSKRLITYRLRHLLRARCDASPVTNTTIQFHCDPSFWAQNIINLGSLVIEDKESQPQMPKQNPVVEQSSQPPGGLPSNQLSKFPTQISLAQLRLQHIQQQVMAQRQQVQRRPAPVGLPNPRMQGPIQQPSISHQHPPPRLINFQNHSPKPNGPVLPPYPQQLRYSPSQNVPRQTTIKPNPLQMAFLAQQAIKQWQISSVQAPPTTASSSSSTPSSPTITSAAGYDGKAFSSPMIDLSAPVGGSYNLPSLPDIDCSSTIMLDNIARKDTGVDHAQPRPPSNRTVQSPNSSVPSPGLAGPVTMTSVHPPIRSPSASSVGSRGSSGSSSKPAGADSTHKVPVVMLEPIRIKQENSGPPENYDFPVVIVKQESDEESRPQNTNYPRSILTSLLLNSSQSSASEETVLRSDAPDSTGDQPGLHQENSSNGKSEWSDASQKSPVHVGETRKEDDPNEDWCAVCQNGGELLCCEKCPKVFHLTCHVPTLTNFPSGEWICTFCRDLSKPEVDYDCDVPSHHSEKRKSEGLTKLTPIDKRKCERLLLFLYCHEMSLAFQDPVPLTVPDYYKIIKNPMDLSTIKKRLQEDYCMYTKPEDFVADFRLIFQNCAEFNEPDSEVANAGIKLESYFEELLKNLYPEKRFPKVEFRHEAEDCKFSDDSDDDFVQPRKKRLKSTEDRQLLK
B1 was tested, and the binding was “binds”.

— publication PMC12047442
